From PMC9663589, “Anti-tumor effects of P-LPK-CPT, a peptide-camptothecin conjugate, in colorectal cancer” (Communications Biology, 2022)
No constants are given. Whether binding was seen depends on the method and setting. Binding seen in cells or lysates may run through a third protein. A yes stands for co-enrichment or nearness to the bait. Other partners may have been found.

Sequences of proteins named here, by UniProt entry; tags and fusion partners are left off. Residues count along the entry.
UniProt P54289, residues 25-1103: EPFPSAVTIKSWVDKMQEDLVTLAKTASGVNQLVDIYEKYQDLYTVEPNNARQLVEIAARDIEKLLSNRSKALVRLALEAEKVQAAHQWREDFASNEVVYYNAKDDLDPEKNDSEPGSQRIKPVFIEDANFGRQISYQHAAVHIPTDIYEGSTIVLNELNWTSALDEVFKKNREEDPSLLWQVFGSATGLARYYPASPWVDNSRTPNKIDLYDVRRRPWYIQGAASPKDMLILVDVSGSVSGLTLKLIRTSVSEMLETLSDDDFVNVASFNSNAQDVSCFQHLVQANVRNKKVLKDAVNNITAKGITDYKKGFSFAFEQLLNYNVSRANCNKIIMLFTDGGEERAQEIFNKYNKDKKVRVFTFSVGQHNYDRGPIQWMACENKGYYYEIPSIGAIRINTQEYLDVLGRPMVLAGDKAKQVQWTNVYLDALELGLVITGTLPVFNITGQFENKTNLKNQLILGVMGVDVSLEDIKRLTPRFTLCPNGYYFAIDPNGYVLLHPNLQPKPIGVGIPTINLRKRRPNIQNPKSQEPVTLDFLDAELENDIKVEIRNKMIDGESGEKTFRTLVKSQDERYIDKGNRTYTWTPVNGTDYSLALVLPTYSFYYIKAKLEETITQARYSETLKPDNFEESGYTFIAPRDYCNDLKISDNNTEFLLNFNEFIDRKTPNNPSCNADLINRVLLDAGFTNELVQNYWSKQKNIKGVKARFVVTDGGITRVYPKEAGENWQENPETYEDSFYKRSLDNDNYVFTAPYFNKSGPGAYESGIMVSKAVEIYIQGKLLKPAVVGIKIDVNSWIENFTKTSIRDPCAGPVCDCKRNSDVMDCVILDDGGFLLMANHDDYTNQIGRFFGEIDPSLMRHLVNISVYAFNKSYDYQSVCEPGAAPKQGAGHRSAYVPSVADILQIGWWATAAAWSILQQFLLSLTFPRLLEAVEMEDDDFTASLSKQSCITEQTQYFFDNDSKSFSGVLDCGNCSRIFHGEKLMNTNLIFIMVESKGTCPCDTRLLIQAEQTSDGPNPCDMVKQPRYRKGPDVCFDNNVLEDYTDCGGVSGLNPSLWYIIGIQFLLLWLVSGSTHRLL

Target: T1, Biotin-P-LPK
T1 sequence (peptide, biotin (position not stated)): LPKTVSSDMSLN
Test: affinity purification with mass spectrometry; 50 ug/ml Biotin-P-LPK (Biotin-P-CON as control) incubated with HCT116 cells at 37 °C for 2 h, cells lysed, captured on magnetic beads; silver-stained bands cut out and identified by mass spectrometry; only the target purified

## CACNA2D1 (from UniProt P54289 25-1103)
  binding: binds

B1: SLC1A5 (endogenous, HCT116 cells) (receptor, UniProt Q15758 1-541)
chain: MVADPPRDSKGLAAAEPTANGGLALASIEDQGAAAGGYCGSRDQVRRCLRANLLVLLTVVAVVAGVALGLGVSGAGGALALGPERLSAFVFPGELLLRLLRMIILPLVVCSLIGGAASLDPGALGRLGAWALLFFLVTTLLASALGVGLALALQPGAASAAINASVGAAGSAENAPSKEVLDSFLDLARNIFPSNLVSAAFRSYSTTYEERNITGTRVKVPVGQEVEGMNILGLVVFAIVFGVALRKLGPEGELLIRFFNSFNEATMVLVSWIMWYAPVGIMFLVAGKIVEMEDVGLLFARLGKYILCCLLGHAIHGLLVLPLIYFLFTRKNPYRFLWGIVTPLATAFGTSSSSATLPLMMKCVEENNGVAKHISRFILPIGATVNMDGAALFQCVAAVFIAQLSQQSLDFVKIITILVTATASSVGAAGIPAGGVLTLAIILEAVNLPVDHISLILAVDWLVDRSCTVLNVEGDALGAGLLQNYVDRTESRSTEPELIQVKSELPLDPLPVPTEEGNPLLKHYRGPAGDATVASEKESVM
  binding: binds
